PubChem BioAssay AID743121 – NCATS | 2013
Aim: 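Knock-downs that sensitise breast cancer cells to camptothecin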 (primary screen). Cells: MDA-MB-231 cells, a human breast cancer line. Knock-down reagent: single siRNA against human genes, 20 nM siRNA (0.8 pmol per well). Duration: 120 h (drug added 48 h after transfection, read 72 h later). Challenge: camptothecin 20 nM (about EC30) for 72 h; vehicle 0.1% DMSO in parallel plates. Read-out: 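CellTiter-Glo ATP signal, scaled to control siRNA as percent viability; sensitisation given as log2 of untreated divided by camptothecin-treated viability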. Direction: log2 vehicle/camptothecin viability: higher = stronger sensitisation to camptothecin. Rule for the call: 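Active genes have an RSA gene-level p-value below 0.001, computed from the ratios of their separate siRNAs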.
Shown is an unselected part of about 26,000 reagents. Over the whole deposit, 167 (0.63%) got an active call. 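Calls are per gene from RSA p-values that are not deposited; an individual active-marked siRNA can sensitise only weakly.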 Reagents against one gene are numbered here. Not all columns of the deposit are shown.

Gene,reagent,log2 vehicle/camptothecin viability,outcome
CARS1 (cysteinyl-tRNA synthetase 1),1,-0.0414,inactive
CARS1 (cysteinyl-tRNA synthetase 1),2,-0.12,inactive
CARS1 (cysteinyl-tRNA synthetase 1),3,-0.275,inactive
CARS1 (cysteinyl-tRNA synthetase 1),4,-0.509,inactive
CA5BP1 (carbonic anhydrase 5B pseudogene 1),1,0.297,inactive
CA5BP1 (carbonic anhydrase 5B pseudogene 1),2,0.188,inactive
FABP4 (fatty acid binding protein 4),1,0.144,inactive
FABP4 (fatty acid binding protein 4),2,-0.252,inactive
FABP4 (fatty acid binding protein 4),3,0.147,inactive
CLEC2D (C-type lectin domain family 2 member D),1,-0.448,inactive
CLEC2D (C-type lectin domain family 2 member D),2,-0.111,inactive
CLEC2D (C-type lectin domain family 2 member D),3,-0.077,inactive
CLEC2D (C-type lectin domain family 2 member D),4,-0.0488,inactive
MAGI2,1,0.277,inactive
MAGI2,2,-0.402,inactive
MAGI2,3,-0.425,inactive
MAGI2,4,-0.404,inactive
MAGI2,5,-0.313,inactive
MAGI2,6,-0.409,inactive
ATP2B3 (ATPase plasma membrane Ca2+ transporting 3),1,0.0245,inactive
ATP2B3 (ATPase plasma membrane Ca2+ transporting 3),2,0.0421,inactive
ATP2B3 (ATPase plasma membrane Ca2+ transporting 3),3,-0.483,inactive
ATP2B3 (ATPase plasma membrane Ca2+ transporting 3),4,-2.51,inactive

Continued; the last 6 above are carried over.
Gene,reagent,log2 vehicle/camptothecin viability,outcome
MAGI2,5,-0.313,inactive
MAGI2,6,-0.409,inactive
ATP2B3 (ATPase plasma membrane Ca2+ transporting 3),1,0.0245,inactive
ATP2B3 (ATPase plasma membrane Ca2+ transporting 3),2,0.0421,inactive
ATP2B3 (ATPase plasma membrane Ca2+ transporting 3),3,-0.483,inactive
ATP2B3 (ATPase plasma membrane Ca2+ transporting 3),4,-2.51,inactive
ADCY10 (adenylate cyclase 10),1,-0.196,inactive
ADCY10 (adenylate cyclase 10),2,0.273,inactive
ADCY10 (adenylate cyclase 10),3,-0.447,inactive
ADCY10 (adenylate cyclase 10),4,-0.357,inactive
TRADD (TNFRSF1A associated via death domain),1,-0.0409,inactive
TRADD (TNFRSF1A associated via death domain),2,-0.227,inactive
TRADD (TNFRSF1A associated via death domain),3,0.863,inactive
TRADD (TNFRSF1A associated via death domain),4,0.193,inactive
LOXL3 (lysyl oxidase like 3),1,-0.211,inactive
LOXL3 (lysyl oxidase like 3),2,-0.303,inactive
LOXL3 (lysyl oxidase like 3),3,-0.598,inactive
IL1RN (interleukin 1 receptor antagonist),1,-0.0296,inactive
IL1RN (interleukin 1 receptor antagonist),2,0.0832,inactive
IL1RN (interleukin 1 receptor antagonist),3,0.23,inactive
IL1RN (interleukin 1 receptor antagonist),4,0.397,inactive
PLAAT1 (phospholipase A and acyltransferase 1),1,-0.347,inactive
PLAAT1 (phospholipase A and acyltransferase 1),2,-0.485,inactive
PLAAT1 (phospholipase A and acyltransferase 1),3,-0.244,inactive
PLAAT1 (phospholipase A and acyltransferase 1),4,-0.653,inactive
GSTP1 (glutathione S-transferase pi 1),1,-0.0837,inactive
GSTP1 (glutathione S-transferase pi 1),2,-0.191,inactive
GSTP1 (glutathione S-transferase pi 1),3,0.043,inactive
GSTP1 (glutathione S-transferase pi 1),4,-0.389,inactive
